Source: patent publication US10947272B2, “BACE1 inhibitor peptides” (HOFFMANN-LA ROCHE INC., priority 2015, dated 2021)
No constants are given. Whether binding was seen depends on the method and setting. Some entries that bind do so weakly or less than the wild type.

Amino acid sequences for entries named in this document (tags omitted). Residues count along the entry.
UniProt P56817, residues 46-460: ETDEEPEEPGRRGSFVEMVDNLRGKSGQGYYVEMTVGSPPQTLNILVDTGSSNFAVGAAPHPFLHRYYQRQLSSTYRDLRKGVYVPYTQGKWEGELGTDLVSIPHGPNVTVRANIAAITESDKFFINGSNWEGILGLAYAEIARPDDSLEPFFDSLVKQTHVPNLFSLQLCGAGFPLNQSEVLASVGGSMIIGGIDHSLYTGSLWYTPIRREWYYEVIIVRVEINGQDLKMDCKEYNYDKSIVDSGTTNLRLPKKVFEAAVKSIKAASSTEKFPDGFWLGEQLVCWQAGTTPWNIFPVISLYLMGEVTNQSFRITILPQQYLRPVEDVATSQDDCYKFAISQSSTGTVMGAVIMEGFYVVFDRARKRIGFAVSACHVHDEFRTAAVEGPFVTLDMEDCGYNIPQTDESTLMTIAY

molecular target: BACE1 enzyme (WT1-13-2), biotinylated (UniProt P56817); assay: 5-mer peptide array, biotinylated BACE1 detected with streptavidin-Cy5; the words stand in paragraph 143, the motif in the table

| Binder | binding |
| --- | --- |
| ARFIP [ARFIP core motif (5-mer array peptide)] | binds |

molecular target: BACE1 enzyme (WT1-13-2), biotinylated (UniProt P56817); assay: extension peptide array, biotinylated BACE1 detected with streptavidin-Cy5

| Binder | binding |
| --- | --- |
| DYPKFIS [DYPKFIS (extension array peptide)] | binds |
| DYPKFLP [DYPKFLP (extension array peptide)] | binds |
| SYPKFID [SYPKFID (extension array peptide)] | binds |

molecular target: BACE1 enzyme (WT1-13-2), biotinylated (UniProt P56817); assay: double substitution/deletion peptide array, biotinylated BACE1 detected with streptavidin-Cy5; the words stand in paragraph 151, the sequence in the table

| Binder | binding |
| --- | --- |
| QQYPYFKPAN | binds |
| YPTFKPANGS | binds |
| GDYPKFISAN | binds |
| GDYPKFIPAS | binds |
| GSYPKFIDAN | binds |
| STGARFIPAN | binds |

molecular target: BACE1 enzyme (WT1-13-2), biotinylated (UniProt P56817); assay: extension peptide array, biotinylated BACE1 detected with streptavidin-Cy5; the words stand in paragraph 147, the sequence in the table

| Binder | binding |
| --- | --- |
| YPTFKPA [YPTFKPA (extension array peptide)] | binds |
| DYPKFIS [DYPKFIS (extension array peptide)] | binds |
| DYPKFLP [DYPKFLP (extension array peptide)] | binds |
| SYPKFID [SYPKFID (extension array peptide)] | binds |
| TGARFIPAN [… (extension array peptide)] | binds |
| YPYFKPA [YPYFKPA (extension array peptide)] | binds |
| QYPYFKPA [QYPYFKPA (extension array peptide)] | binds |
| YPYFKPAS [YPYFKPAS (extension array peptide)] | binds |
